From publication PMC2691479, “SNX4 in Complex with Clathrin and Dynein: Implications for Endosome Movement” (PLoS ONE, 2009)
No constants are given. Whether binding was seen depends on the method and setting. In cells and extracts the contact can be indirect. For some assays here: Binding calls can cover weak binding; strength is not graded here.

What was measured:
[1] = target: T1, Sorting nexin 4 (SNX4), endogenous (human (endogenous in HEK293)) (UniProt O95219); experiment: co-IP; anti-SNX4 (E-18) on Protein A Sepharose, HEK293 lysate (0.1 M NaCl, 10 mM Na2HPO4 pH 7.4, 1 mM EDTA, 1% Triton X-100), overnight at 4°C, Western blot; cells untreated, or transfected with control, SNX4 or CHC siRNA, or treated with nocodazole for 30 min
T1 sequence: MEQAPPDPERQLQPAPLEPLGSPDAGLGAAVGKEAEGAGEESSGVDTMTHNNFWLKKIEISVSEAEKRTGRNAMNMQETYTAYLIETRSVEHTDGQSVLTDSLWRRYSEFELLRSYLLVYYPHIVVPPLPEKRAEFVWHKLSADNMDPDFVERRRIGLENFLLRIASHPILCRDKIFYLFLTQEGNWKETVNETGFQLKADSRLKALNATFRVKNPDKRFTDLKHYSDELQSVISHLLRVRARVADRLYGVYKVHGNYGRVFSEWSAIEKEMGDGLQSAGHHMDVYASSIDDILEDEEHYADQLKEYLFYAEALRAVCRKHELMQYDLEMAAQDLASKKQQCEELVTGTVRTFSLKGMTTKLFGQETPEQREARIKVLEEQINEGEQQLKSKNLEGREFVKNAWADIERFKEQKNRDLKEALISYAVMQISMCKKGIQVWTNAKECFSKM

[2] = target: T1, Sorting nexin 4 (SNX4), endogenous (human (endogenous in HEK293)); experiment: condition: only cells treated with 100 nM wortmannin for 30 min; co-IP; as a1, but HEK293 cells treated with 100 nM wortmannin for 30 min before lysis; anti-SNX4 immunoprecipitation overnight at 4°C

## tubulin, endogenous (human (endogenous in HEK293))
[1]
  binding: binds
[2]
  binding: no binding
